For the assay, the target named is Human Nova2-KH3 fragment (residues 406–492) (human) (UniProt Q9UNW9). Nature of the assay: AUC; sedimentation velocity; 60,000 r.p.m, 4°C, absorbance detection; approximately 43 µM FILIA-N, 84 µM Nova2-KH3; 50 mM Tris pH 8.0, 200 mM NaCl, 1 mM TCEP; both purified.

No constants are given. Whether binding was seen depends on the method and setting.

B1: Human Nova2-KH3 fragment (residues 406–492) (domain or fragment, UniProt Q9UNW9 406-492)
chain: KELVEIAVPENLVGAILGKGGKTLVEYQELTGARIQISKKGEFLPGTRNRRVTITGSPAATQAAQYLISQRVTYEQGVRASNPQKVG
As to B1, the binding result is reported as “no binding (tested: 84 µM)”.

These data come from PMC3261892.
